Results taken from the supplement of paper PMC10849652.
This is one part of the list.

Sequences of proteins named here, by UniProt entry; tags and fusion partners are left off. A change or cut given only in a name is not applied to a line headed by its entry.
UniProt Q9NYL9: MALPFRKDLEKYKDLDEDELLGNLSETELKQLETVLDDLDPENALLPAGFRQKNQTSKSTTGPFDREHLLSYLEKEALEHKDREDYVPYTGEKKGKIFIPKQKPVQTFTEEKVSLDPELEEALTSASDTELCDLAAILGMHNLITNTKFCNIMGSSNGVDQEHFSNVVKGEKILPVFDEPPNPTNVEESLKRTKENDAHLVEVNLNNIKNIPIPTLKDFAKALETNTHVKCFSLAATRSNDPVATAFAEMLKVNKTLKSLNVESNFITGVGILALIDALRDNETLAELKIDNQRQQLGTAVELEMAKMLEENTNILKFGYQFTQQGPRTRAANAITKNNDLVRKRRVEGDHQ
UniProt Q9HCN3: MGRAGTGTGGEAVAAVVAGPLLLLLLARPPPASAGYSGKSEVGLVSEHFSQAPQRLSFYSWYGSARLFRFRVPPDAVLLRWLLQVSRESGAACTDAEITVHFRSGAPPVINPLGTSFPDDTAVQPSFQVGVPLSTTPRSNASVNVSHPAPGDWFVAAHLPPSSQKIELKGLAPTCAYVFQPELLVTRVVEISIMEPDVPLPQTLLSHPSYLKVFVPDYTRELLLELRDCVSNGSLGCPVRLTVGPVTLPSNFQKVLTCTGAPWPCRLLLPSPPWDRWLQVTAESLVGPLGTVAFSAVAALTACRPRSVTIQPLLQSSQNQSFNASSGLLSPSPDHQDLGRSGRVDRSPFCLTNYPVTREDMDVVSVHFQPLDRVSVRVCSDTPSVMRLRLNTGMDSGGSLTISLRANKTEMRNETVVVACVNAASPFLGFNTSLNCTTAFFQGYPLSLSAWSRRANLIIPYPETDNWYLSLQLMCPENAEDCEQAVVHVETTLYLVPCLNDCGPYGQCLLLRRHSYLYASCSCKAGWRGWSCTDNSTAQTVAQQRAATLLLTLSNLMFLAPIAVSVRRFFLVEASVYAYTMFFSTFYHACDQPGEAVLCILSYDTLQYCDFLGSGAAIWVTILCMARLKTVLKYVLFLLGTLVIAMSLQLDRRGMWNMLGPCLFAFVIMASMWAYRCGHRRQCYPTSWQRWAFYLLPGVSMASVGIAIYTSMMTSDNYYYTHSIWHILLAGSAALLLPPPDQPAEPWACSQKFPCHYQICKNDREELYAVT
UniProt P62328: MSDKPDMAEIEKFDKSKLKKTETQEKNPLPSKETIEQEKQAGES
UniProt Q12767: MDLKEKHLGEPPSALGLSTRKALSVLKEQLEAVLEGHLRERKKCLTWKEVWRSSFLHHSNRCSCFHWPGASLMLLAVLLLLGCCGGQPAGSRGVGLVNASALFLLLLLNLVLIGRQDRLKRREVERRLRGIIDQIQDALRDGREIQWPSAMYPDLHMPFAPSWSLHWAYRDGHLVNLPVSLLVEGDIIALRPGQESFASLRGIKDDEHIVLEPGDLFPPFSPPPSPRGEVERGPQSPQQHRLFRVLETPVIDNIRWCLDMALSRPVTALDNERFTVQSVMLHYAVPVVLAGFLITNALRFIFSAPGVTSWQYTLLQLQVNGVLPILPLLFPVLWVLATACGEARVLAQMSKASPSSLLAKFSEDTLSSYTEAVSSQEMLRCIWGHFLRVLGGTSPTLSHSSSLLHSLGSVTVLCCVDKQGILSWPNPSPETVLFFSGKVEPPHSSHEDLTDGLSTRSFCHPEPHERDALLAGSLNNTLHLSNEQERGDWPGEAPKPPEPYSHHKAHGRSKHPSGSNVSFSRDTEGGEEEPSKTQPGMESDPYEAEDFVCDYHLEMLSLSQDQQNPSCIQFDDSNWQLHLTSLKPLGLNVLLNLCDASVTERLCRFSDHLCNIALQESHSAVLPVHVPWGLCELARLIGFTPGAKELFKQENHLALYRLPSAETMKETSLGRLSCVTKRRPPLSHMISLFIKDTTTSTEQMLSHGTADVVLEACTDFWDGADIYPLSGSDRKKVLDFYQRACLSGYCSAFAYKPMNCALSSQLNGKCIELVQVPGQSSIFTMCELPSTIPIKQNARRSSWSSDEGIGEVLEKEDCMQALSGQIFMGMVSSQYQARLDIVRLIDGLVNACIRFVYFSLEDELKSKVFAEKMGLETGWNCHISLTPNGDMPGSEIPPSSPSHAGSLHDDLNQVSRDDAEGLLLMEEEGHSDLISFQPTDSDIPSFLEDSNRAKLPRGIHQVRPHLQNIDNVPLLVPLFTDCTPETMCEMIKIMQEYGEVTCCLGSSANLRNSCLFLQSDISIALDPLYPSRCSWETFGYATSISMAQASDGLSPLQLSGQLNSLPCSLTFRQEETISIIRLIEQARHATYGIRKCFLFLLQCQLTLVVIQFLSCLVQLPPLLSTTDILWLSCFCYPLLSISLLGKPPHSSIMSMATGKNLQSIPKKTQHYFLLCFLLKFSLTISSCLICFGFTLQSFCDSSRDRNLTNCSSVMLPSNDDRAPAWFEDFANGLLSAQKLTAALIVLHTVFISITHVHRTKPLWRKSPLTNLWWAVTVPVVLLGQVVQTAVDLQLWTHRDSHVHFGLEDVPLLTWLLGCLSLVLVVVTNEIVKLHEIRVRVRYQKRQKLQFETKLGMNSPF
UniProt Q9H497: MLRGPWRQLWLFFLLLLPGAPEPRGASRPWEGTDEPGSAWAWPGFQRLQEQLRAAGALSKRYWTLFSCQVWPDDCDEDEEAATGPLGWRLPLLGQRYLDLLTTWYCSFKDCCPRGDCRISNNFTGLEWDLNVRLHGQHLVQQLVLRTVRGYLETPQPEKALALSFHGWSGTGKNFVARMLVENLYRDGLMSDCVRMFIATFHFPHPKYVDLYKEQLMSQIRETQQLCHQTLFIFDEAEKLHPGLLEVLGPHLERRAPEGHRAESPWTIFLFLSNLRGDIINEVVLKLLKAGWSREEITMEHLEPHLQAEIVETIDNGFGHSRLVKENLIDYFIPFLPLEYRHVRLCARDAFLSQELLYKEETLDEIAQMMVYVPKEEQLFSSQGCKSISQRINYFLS
UniProt Q9UKE5: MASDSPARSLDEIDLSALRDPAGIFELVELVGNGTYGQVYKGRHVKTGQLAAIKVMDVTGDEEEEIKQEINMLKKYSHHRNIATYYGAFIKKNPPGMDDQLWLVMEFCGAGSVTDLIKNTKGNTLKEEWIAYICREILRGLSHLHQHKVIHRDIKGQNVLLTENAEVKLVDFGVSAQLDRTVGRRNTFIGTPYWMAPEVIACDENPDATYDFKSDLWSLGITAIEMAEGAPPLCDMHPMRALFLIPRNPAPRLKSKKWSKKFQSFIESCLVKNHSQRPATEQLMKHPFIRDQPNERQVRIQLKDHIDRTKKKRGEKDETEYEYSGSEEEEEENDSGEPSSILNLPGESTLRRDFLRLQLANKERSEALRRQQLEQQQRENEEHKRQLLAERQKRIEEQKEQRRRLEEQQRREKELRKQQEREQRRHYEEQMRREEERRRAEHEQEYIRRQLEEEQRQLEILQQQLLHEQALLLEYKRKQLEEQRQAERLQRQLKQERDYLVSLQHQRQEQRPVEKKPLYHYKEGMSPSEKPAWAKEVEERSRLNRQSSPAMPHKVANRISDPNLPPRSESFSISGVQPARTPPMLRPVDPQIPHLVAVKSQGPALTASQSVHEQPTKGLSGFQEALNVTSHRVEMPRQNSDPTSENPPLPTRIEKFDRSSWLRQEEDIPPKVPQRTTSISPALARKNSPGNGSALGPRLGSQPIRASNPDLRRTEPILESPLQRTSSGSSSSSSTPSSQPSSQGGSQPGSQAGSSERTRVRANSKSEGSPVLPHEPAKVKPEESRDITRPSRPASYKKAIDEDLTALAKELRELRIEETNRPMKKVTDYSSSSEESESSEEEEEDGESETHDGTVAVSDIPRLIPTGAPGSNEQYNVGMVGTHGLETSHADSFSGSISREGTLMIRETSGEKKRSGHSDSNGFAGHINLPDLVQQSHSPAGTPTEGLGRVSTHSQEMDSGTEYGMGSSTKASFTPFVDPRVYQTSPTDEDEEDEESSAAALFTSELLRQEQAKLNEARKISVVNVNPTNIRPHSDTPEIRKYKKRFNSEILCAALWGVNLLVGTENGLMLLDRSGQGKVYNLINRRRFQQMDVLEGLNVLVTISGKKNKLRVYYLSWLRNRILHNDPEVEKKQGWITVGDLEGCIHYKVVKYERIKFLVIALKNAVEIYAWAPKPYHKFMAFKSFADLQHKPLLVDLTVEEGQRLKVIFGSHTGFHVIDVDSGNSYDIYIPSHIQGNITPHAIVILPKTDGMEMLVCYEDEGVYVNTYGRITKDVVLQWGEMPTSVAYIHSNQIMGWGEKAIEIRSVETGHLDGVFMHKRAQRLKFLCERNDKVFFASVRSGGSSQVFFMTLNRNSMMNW
UniProt Q5BJD5: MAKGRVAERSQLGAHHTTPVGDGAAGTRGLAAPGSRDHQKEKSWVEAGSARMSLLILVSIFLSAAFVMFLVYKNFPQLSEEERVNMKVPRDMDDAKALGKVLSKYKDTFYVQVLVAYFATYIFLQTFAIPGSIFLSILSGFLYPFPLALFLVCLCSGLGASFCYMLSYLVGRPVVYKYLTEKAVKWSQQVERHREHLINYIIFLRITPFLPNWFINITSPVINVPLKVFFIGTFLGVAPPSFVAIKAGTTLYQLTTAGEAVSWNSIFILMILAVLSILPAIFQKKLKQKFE
UniProt Q6UW68: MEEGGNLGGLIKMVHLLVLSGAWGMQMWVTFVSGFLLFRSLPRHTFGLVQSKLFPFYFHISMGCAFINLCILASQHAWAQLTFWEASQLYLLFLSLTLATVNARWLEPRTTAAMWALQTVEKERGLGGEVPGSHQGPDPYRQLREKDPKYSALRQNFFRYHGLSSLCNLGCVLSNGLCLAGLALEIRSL
UniProt Q5JU69: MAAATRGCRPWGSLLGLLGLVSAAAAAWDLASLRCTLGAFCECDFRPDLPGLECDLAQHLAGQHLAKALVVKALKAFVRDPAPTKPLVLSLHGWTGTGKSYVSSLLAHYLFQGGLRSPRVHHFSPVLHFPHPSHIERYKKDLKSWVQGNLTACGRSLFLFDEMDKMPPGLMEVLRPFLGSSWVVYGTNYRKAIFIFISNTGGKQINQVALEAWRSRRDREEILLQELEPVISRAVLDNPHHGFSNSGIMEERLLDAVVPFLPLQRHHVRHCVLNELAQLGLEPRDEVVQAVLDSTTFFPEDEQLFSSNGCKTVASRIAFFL
UniProt O96008: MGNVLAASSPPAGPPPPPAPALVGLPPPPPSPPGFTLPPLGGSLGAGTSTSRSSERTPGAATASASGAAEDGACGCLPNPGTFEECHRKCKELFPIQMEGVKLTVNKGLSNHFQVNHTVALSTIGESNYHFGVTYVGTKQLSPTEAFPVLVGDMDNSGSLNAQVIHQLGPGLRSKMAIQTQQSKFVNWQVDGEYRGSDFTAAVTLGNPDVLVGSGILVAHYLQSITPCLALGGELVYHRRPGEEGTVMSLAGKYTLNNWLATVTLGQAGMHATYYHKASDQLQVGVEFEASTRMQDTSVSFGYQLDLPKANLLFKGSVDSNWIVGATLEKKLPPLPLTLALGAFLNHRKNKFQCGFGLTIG
UniProt P13693: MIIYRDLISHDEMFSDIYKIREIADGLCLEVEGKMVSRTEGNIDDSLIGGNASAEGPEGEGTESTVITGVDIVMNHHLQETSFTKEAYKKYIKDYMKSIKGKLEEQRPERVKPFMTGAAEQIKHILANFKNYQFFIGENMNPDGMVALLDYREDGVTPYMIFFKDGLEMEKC

Assays:
Test in all cases: log2 fold change, soluble protein after heating vs DMSO (PISA); higher = thermal stabilisation; K562 lysate, 10 uM; active = over 0.2 and 3.5 SD of the protein, either way, in both replicates (recomputed)
[1] = compound: CS(=O)(=O)CCNCc1ccc(-c2ccc3ncnc(Nc4ccc(OCc5cccc(F)c5)c(Cl)c4)c3c2)o1 [lapatinib]
Outline: (§1)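 Following dounce homogenisation of K562 pellets in PBS pH 7.4 with 1 mM MgCl2, crude extract at 1 mg/mL protein was incubated for 30 min with 10 μM compound. Aliquots were then heated for 3 min over 48°C-58°C and pooled, NP-40 was added to 0.5% at 4°C, and soluble protein was recovered as the supernatant at 21,000xg for 90 min. Channel-sum-equalised TMTpro 16plex LC-MS/MS quantified this protein. Each value, from duplicates, is a log-two fold change in thermal stability relative to solvent controls.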

[2] = compound: CS(=O)(=O)N1CCN(Cc2cc3nc(-c4cccc5[nH]ncc45)nc(N4CCOCC4)c3s2)CC1 [pictilisib]
Outline: as §1

[3] = compound: C[C@@H](Oc1cc(-c2cnn(C3CCNCC3)c2)cnc1N)c1c(Cl)ccc(F)c1Cl [crizotinib]
Outline: as §1

[4] = compound: C[C@H](C1=CC=C(C=C1)C(=O)NC2=C3C=CNC3=NC=C2)N
Outline: as §1

[5] = compound: C[C@H](Nc1ncnc2nc[nH]c12)c1cc2cccc(Cl)c2c(=O)n1-c1ccccc1 [duvelisib]
Outline: as §1

[6] = compound: Cc1cc(Nc2cc(CN3CCOCC3)c3nc(C)c(Cc4ccc(Cl)cc4F)n3n2)n[nH]1 [gandotinib]
Outline: as §1

[7] = compound: Cc1cc(Nc2cc(N3CCN(C)CC3)nc(Sc3ccc(NC(=O)C4CC4)cc3)n2)n[nH]1 [tozasertib]
Outline: as §1

[8] = compound: Cc1ccc(-n2nc(C(C)(C)C)cc2NC(=O)Nc2ccc(OCCN3CCOCC3)c3ccccc23)cc1 [doramapimod]
Outline: as §1

[9] = compound: Cc1ccc(NC(=O)c2ccc(CN3CC[C@H](N(C)C)C3)c(C(F)(F)F)c2)cc1Nc1nccc(-c2cncnc2)n1 [bafetinib]
Outline: as §1

[10] = compound: Cc1cccc(CC(=O)N2CCc3c2ccc(-c2cn(C)c4ncnc(N)c24)c3F)n1
Outline: as §1

Measured: log2 fold change

TMOD3 (UniProt Q9NYL9)
inactive: [1] -0.008 | [2] 0.038 | [3] -0.05 | [4] -0.004 | [5] -0.002 | [6] 0.014 | [7] -0.003 | [8] 0.036 | [9] -0.041 | [10] 0.022

TMEM8A (UniProt Q9HCN3)
inactive: [1] -0.042 | [2] 0.072 | [4] -0.006 | [6] -0.015 | [7] -0.028 | [9] -0.17 | [10] -0.031

TPCN1 isoform 3 (UniProt Q9ULQ1)
inactive: [1] -0.06 | [2] -0.121 | [3] 0.024 | [4] -0.096 | [6] 0.047 | [7] -0.053 | [8] -0.034 | [9] -0.037 | [10] 0.028

TMSB4X (UniProt P62328)
inactive: [1] 0.12 | [2] -0.553 | [3] 0.015 | [4] -0.132 | [6] 0.65 | [7] 0.123 | [8] -0.24 | [9] -0.546 | [10] -0.166

TMEM94 isoform 2 (UniProt Q12767)
inactive: [1] 0.042 | [2] -0.074 | [3] 0.003 | [5] 0.059 | [7] 0.059 | [8] -0.141 | [9] -0.054

TOR3A (UniProt Q9H497)
active: [1] -0.43
inactive: [2] -0.077 | [3] 0.023 | [4] -0.078 | [5] 0.012 | [6] 0.012 | [7] -0.047 | [8] -0.024 | [9] 0.046 | [10] 0.048

TNIK isoform 5 (UniProt Q9UKE5)
inactive: [1] -0.098 | [2] 0.046 | [3] -0.035 | [4] 0.051 | [5] 0.009 | [6] 0.025 | [8] 0.311 | [9] -0.055 | [10] -0.02

TMEM41B (UniProt Q5BJD5)
inactive: [1] -0.067 | [2] 0.056 | [3] 0.027 | [4] -0.029 | [5] 0.088 | [6] -0.094 | [7] -0.056 | [8] -0.084 | [9] 0.125 | [10] 0.03

TMEM205 (UniProt Q6UW68)
inactive: [1] 0.033 | [2] 0.097 | [3] -0.075 | [5] 0.027 | [7] -0.06 | [8] -0.003 | [9] -0.085

Pulled one by one from above, two records:
TMSB4X (UniProt P62328)
inactive: [1] 0.12 | [2] -0.553 | [3] 0.015 | [4] -0.132 | [6] 0.65 | [7] 0.123 | [8] -0.24 | [9] -0.546 | [10] -0.166

TMEM8A (UniProt Q9HCN3)
inactive: [1] -0.042 | [2] 0.072 | [4] -0.006 | [6] -0.015 | [7] -0.028 | [9] -0.17 | [10] -0.031

Later entries:

TOR2A (UniProt Q5JU69)
inactive: [1] 0.03 | [2] -0.008 | [3] -0.03 | [4] -0.154 | [5] 0.009 | [6] -0.059 | [7] 0.005 | [8] -0.111 | [9] -0.068 | [10] 0.009

TOMM40 (UniProt O96008)
inactive: [1] -0.004 | [2] -0.021 | [3] 0.004 | [4] -0.061 | [5] 0.005 | [6] 0.081 | [7] -0.004 | [8] -0.032 | [9] -0.03 | [10] 0.044

TPT1 (UniProt P13693)
inactive: [1] 0.029 | [2] 0.009 | [3] 0.022 | [4] 0.064 | [5] 0.005 | [6] -0.001 | [7] -0.018 | [8] -0.019 | [9] 0.033 | [10] -0.042
